Measurements from PMC6738495.
No constants are given. Whether binding was seen depends on the method and setting. In cells and extracts the contact can be indirect. These calls come from enrichment with a bait or labelling near it, and not all partners need be listed.

Amino acid sequences for entries named in this document (tags omitted). Residues count along the entry.
UniProt P13595, residues 20-1115: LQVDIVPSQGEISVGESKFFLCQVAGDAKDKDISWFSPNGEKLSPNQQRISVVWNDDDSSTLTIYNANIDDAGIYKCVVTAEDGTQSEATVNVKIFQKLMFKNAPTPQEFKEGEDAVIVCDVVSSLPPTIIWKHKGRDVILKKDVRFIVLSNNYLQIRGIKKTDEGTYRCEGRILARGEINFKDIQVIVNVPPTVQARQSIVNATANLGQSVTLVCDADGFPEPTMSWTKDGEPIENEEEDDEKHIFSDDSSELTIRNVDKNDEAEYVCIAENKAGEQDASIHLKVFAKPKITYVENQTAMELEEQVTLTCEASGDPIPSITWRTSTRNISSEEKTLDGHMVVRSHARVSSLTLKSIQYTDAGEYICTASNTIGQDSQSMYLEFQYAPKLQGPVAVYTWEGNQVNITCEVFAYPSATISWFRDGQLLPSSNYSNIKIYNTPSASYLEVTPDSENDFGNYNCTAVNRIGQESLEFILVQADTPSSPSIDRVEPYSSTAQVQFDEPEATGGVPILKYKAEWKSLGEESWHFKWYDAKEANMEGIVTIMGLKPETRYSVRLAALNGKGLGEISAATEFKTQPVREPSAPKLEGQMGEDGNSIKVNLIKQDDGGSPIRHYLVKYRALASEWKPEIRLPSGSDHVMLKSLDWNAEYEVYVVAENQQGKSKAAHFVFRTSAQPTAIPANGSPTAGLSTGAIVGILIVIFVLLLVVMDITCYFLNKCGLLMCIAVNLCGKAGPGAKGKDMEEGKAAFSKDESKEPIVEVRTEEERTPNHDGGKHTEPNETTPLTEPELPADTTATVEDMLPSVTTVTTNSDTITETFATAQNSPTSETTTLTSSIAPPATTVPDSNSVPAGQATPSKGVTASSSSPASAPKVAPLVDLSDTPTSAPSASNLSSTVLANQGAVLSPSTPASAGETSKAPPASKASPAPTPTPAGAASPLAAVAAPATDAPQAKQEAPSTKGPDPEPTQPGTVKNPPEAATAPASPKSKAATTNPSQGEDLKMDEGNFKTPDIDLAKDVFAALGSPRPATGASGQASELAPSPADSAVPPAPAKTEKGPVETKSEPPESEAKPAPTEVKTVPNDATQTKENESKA

Biological target: mouse PrP (MoPrP) (mouse (endogenous in C57Bl/6 brain)) (UniProt P04925)
Assay: cross-linking + affinity purification with mass spectrometry

In the case of NCAM (from UniProt P13595 20-1115), the binding is reported as “binds”.
